The values below come from PubChem BioAssay AID248 (DTP/NCI, 2004).

The list does not hold the whole screen: it is rich in T/C values a quarter to a half above the control, in often repeated tests (any T/C) and in doses without a T/C. Other doses and runs of a compound stand elsewhere. T/C gives the treated animals as a percentage of the vehicle group. Some entries give survivors of the animals treated and no T/C: the source holds a T/C of zero for them, seemingly a mark for toxic or unscored doses. Some survivor counts are full or nearly so, which does not show that the dose was tolerated: the source hardly ever lists a survival T/C far under the control, and the zero likely stands for such cases as well. Survivors were counted at the toxicity check, usually on the fifth day, unless a day is given; later deaths do not show. Schedule codes are those of the source, read here as Q, the interval in days (D) or hours (H), X, the number of doses. Some schedules carry Z or #; the key to these is not given. Some entries hold several experiments; the values are given in rising order. For survival time, this PubChem deposit counts one and a half times the control or more as active, and values a quarter to a half above the control carry no call in these data; other NCI protocols may use other cut-offs.

The test system of the assay is L1210 leukemia ip in BDF1 mice, survival T/C. The assay can be described thus: NCI In Vivo Anticancer Drug Screen. Data for tumor model L1210 Leukemia (intraperitoneal) in B6D2F1 (BDF1) mice. The note with it: higher T/C = longer survival.
The mark [1] stands for this setting: T/C endpoint: mean survival time, dose: 200.0 mg/kg/injection, schedule: Q01DX001 (ip), vehicle: saline.
[2] abbreviates: T/C endpoint: mean survival time, dose: 400.0 mg/kg/injection, schedule: Q01DX001 (ip), vehicle: saline.
Setting [3] is: T/C endpoint: mean survival time, dose: 50.0 mg/kg/injection, schedule: Q01DX009 (ip), vehicle: saline with Tween-80.
Setting [4] is: T/C endpoint: mean survival time, dose: 100.0 mg/kg/injection, schedule: Q01DX009 (ip), vehicle: saline with Tween-80.
Where [5] appears, read: T/C endpoint: mean survival time, dose: 100.0 mg/kg/injection, schedule: Q04DX003 (ip), vehicle: saline with Tween-80.
The mark [6] stands for this setting: T/C endpoint: mean survival time, dose: 200.0 mg/kg/injection, schedule: Q04DX003 (ip), vehicle: saline with Tween-80.
Where [7] appears, read: T/C endpoint: mean survival time, dose: 400.0 mg/kg/injection, schedule: Q04DX003 (ip), vehicle: saline with Tween-80.
Setting [8] is: T/C endpoint: mean survival time, dose: 400.0 mg/kg/injection, schedule: Q01DX009 (ip), vehicle: Klucel (hydroxypropylcellulose) (HPC).

Regarding `CCCCc1ccncc1`, the survivor count was 1 of 4 under setting [1] and 0 of 4 under setting [2]. As for `Cn1nnc(N/N=C/c2ccccc2)n1`, the survivor count was 0 of 6 under setting [3]; 0 of 6 under setting [4]; 2 of 6 under setting [5]; 0 of 6 under setting [6]; 0 of 6 under setting [7].

`CCOC(=O)NNOC(=O)CC`: the survivor count (T/C endpoint: mean survival time, dose: 400.0 mg/kg/injection, schedule: Q01DX001 (ip), vehicle: saline with Tween-80) is reported as 0 of 3. Turning to `C[n+]1ccc(NC(=O)c2ccc(NC(=O)c3ccc(C(=O)Nc4ccc(C(=O)Nc5cc[n+](C)cc5)cc4)cc3)cc2)cc1`, the T/C (T/C endpoint: mean survival time, dose: 250.0 mg/kg/injection, schedule: Q01DX Z (ip), vehicle: carboxymethylcellulose (CMC)) was 133 % of control.

Take `CCn1cnc2c(C(F)(F)F)nc(N)nc21`: the survivor count reads like this: (T/C endpoint: mean survival time, dose: 75.0 mg/kg/injection, schedule: Q01DX009 (ip), vehicle: saline with Tween-80) 2 of 6; (T/C endpoint: mean survival time, dose: 75.0 mg/kg/injection, schedule: Q04DX003 (ip), vehicle: acetone) 0 of 6; (T/C endpoint: mean survival time, dose: 100.0 mg/kg/injection, schedule: Q01DX001 (ip), vehicle: acetone) 3 of 6; (T/C endpoint: mean survival time, dose: 115.0 mg/kg/injection, schedule: Q01DX009 (ip), vehicle: saline with Tween-80) 0 of 6; (T/C endpoint: mean survival time, dose: 115.0 mg/kg/injection, schedule: Q04DX003 (ip), vehicle: acetone) 0 of 6; (T/C endpoint: mean survival time, dose: 170.0 mg/kg/injection, schedule: Q04DX003 (ip), vehicle: acetone) 0 of 6. The survivor count is, setting by setting: (T/C endpoint: mean survival time, dose: 200.0 mg/kg/injection, schedule: Q01DX001 (ip), vehicle: acetone) 0 of 6; (T/C endpoint: mean survival time, dose: 400.0 mg/kg/injection, schedule: Q01DX001 (ip), vehicle: acetone) 0 of 6. On to `O=C(O)c1ccncc1C(=O)c1csc2ccccc12`, for which, under “T/C endpoint: mean survival time, dose: 200.0 mg/kg/injection, schedule: Q04DX003 (ip), vehicle: acetone”, the survivor count is given as 1 of 6. For the molecule `CC1=CC(=O)C2(C)C(C)=C(C)C12C` (stereo unspecified), the survivor count under setting [6] is given as 6 of 6. As for `COc1ccc(C2c3cc4c(c(OC)c3CC3OCC(=O)C32)OCO4)cc1OC` (stereo unspecified), the survivor count (T/C endpoint: median survival time, dose: 200.0 mg/kg/injection, schedule: Q01DX009 (ip), vehicle: Klucel (hydroxypropylcellulose) (HPC)) is recorded as 7 of 8.

As for `CCOc1ccc(Nc2ncnc3nc[nH]c23)cc1CN(CCCl)C(C)CCl` (stereo unspecified), the survivor count (T/C endpoint: mean survival time, dose: 8.0 mg/kg/injection, schedule: Q01DX Z (ip), vehicle: saline) was 5 of 6.

Regarding `CCN(CC)CC[n+]1ccccc1`, the survivor count (T/C endpoint: mean survival time, dose: 400.0 mg/kg/injection, schedule: Q04DX002 (ip), vehicle: saline) is 0 of 3. Turning to `NNC(=O)CNc1ccc(Br)cc1F`, the survivor count (T/C endpoint: mean survival time, dose: 400.0 mg/kg/injection, schedule: Q04DX002 (ip), vehicle: Klucel (hydroxypropylcellulose) (HPC)) is on record as 1 of 3. Take `NC(N)=N/N=C/NN/C=N/N=C(N)N`: the T/C (T/C endpoint: mean survival time, dose: 120.0 mg/kg/injection, schedule: Q01DX Z (ip), vehicle: saline) was 130 % of control. The survivor count is given as 1 of 6 (T/C endpoint: mean survival time, dose: 240.0 mg/kg/injection, schedule: Q01DX Z (oral), vehicle: saline); 0 of 6 (T/C endpoint: mean survival time, dose: 480.0 mg/kg/injection, schedule: Q01DX Z (oral), vehicle: saline); 0 of 6 (T/C endpoint: mean survival time, dose: 960.0 mg/kg/injection, schedule: Q01DX Z (oral), vehicle: saline). With `COc1ccc(N=C(N)NC#N)cc1`, the survivor count under setting [8] was 6 of 6. On to `COc1nc(Cl)nc(Cl)c1Cl` (tested in a mixture with another compound), for which, for the setting “T/C endpoint: mean survival time, dose: 200.0 mg/kg/injection, schedule: Q01DX009 (ip), vehicle: other”, the survivor count is 0 of 3.

Consider `COc1cc(CC#N)ccc1C`, for which the survivor count by setting is: (T/C endpoint: mean survival time, dose: 75.0 mg/kg/injection, schedule: Q01DX009 (ip), vehicle: Klucel (hydroxypropylcellulose) (HPC)) 0 of 6; (T/C endpoint: mean survival time, dose: 115.0 mg/kg/injection, schedule: Q01DX009 (ip), vehicle: Klucel (hydroxypropylcellulose) (HPC)) 0 of 6; (T/C endpoint: mean survival time, dose: 170.0 mg/kg/injection, schedule: Q01DX009 (ip), vehicle: Klucel (hydroxypropylcellulose) (HPC)) 0 of 6.

Turning to `CCOc1ccc2c(ccc(C)[n+]2C)c1`, the survivor count (T/C endpoint: mean survival time, dose: 300.0 mg/kg/injection, schedule: Q01DX001 (ip), vehicle: carboxymethylcellulose (CMC)) was 0 of 6. Consider `CC(=O)OC1CC(OC2C(O)CC(OC3C(O)CC(OC4CCC5(C)C(CCC6C5CCC5(C)C(C7=CC(=O)OC7)CCC65O)C4)OC3C)OC2C)OC(C)C1OC1OC(CO)C(O)C(O)C1O` (stereo unspecified), for which the survivor count is reported as 3 of 6 (T/C endpoint: mean survival time, dose: 20.0 mg/kg/injection, schedule: Q01DX001 (ip), vehicle: saline) and 1 of 6 (T/C endpoint: mean survival time, dose: 40.0 mg/kg/injection, schedule: Q01DX001 (ip), vehicle: saline).

Regarding `O=C(Nc1cccc(C(F)(F)F)c1)C(c1ccccc1)c1ccccc1`, the survivor count under setting [8] is 5 of 6. Consider `CC(C)=CCC/C(C)=C\CC1=C(O)c2ccccc2C(=O)C1=O`, for which the survivor count is 0 of 6 (T/C endpoint: mean survival time, dose: 400.0 mg/kg/injection, schedule: Q01DX001 (ip), vehicle: water) and 0 of 6 (T/C endpoint: mean survival time, dose: 400.0 mg/kg/injection, schedule: Q04DX003 (ip), vehicle: acetone). Turning to `CC(=N\N=C(N)N)/C(C)=N/N=C(N)N`, the survivor count (T/C endpoint: mean survival time, dose: 300.0 mg/kg/injection, schedule: Q01DX001 (ip), vehicle: saline) is recorded as 1 of 6.

As for `CC(=O)N1C(C)C1(c1ccccc1)[n+]1ccccc1` (stereo unspecified), the survivor count is on record as 3 of 6 (T/C endpoint: mean survival time, dose: 100.0 mg/kg/injection, schedule: Q04DX003 (ip), vehicle: saline); 0 of 6 (T/C endpoint: mean survival time, dose: 200.0 mg/kg/injection, schedule: Q04DX003 (ip), vehicle: saline); 0 of 6 (T/C endpoint: mean survival time, dose: 400.0 mg/kg/injection, schedule: Q04DX003 (ip), vehicle: saline). With `Cc1cc(C)c(C[N+](C)(C)C)c(C)c1`, the survivor count by setting is: under setting [1], 0 of 4; under setting [2], 0 of 4. As to `C/C(=C/c1ccccc1)C(=O)NN`, the survivor count (T/C endpoint: mean survival time, dose: 320.0 mg/kg/injection, schedule: Q01DX001 (ip), vehicle: saline with Tween-80) was 2 of 6. For `OCC1OC(n2cnc3c(NCCNc4ncnc5c4ncn5C4OC(CO)C(O)C4O)ncnc32)C(O)C1O` (stereo unspecified), the survivor count (T/C endpoint: mean survival time, dose: 200.0 mg/kg/injection, schedule: Q04DX002 (ip), vehicle: saline) is on record as 1 of 4.

On to `O=C(COc1ccc(Cl)c(Cl)c1)N(Cc1ccccc1)Cc1ccc[n+](Cc2cccc(Cl)c2S(=O)(=O)F)c1`, for which the survivor count reads like this: under setting [5], 1 of 6 and 2 of 6; under setting [6], 0 of 6; under setting [7], 0 of 6. As to `C=CCn1c(=S)[nH]c2ccccc2c1=O`, under setting [4], the survivor count is given as 6 of 6. As for `C[CH2][Sn]([Cl])([Cl])[CH2]C.Oc1ccccc1C=NCCN=Cc1ccccc1O`, for the setting “T/C endpoint: mean survival time, dose: 20.0 mg/kg/injection, schedule: Q01DX009 (ip), vehicle: saline with Tween-80”, the survivor count was 2 of 6. For `O=C(Oc1cc([N+](=O)[O-])cc([N+](=O)[O-])c1)C(c1ccccc1)c1ccccc1`, the survivor count under setting [3] is 3 of 3; the survivor count under setting [4] was 3 of 3; the survivor count (T/C endpoint: mean survival time, dose: 200.0 mg/kg/injection, schedule: Q01DX009 (ip), vehicle: saline with Tween-80) is 3 of 3. For `CC12CCCCC1C=CC(=O)C2` (stereo unspecified), the survivor count (T/C endpoint: mean survival time, dose: 300.0 mg/kg/injection, schedule: Q01DX001 (ip), vehicle: other) is reported as 1 of 6. For the molecule `COP(=O)(O)Oc1ccccc1`, the survivor count (T/C endpoint: mean survival time, dose: 350.0 mg/kg/injection, schedule: Q01DX009 (ip), vehicle: saline with Tween-80) is recorded as 0 of 6. Consider `O=[N+]([O-])c1ccc([N+](=O)[O-])c(Cl)c1`, for which the survivor count (T/C endpoint: mean survival time, dose: 200.0 mg/kg/injection, schedule: Q01DX009 (ip), vehicle: Klucel (hydroxypropylcellulose) (HPC)) is recorded as 6 of 6 and the survivor count under setting [7] is on record as 6 of 6. `NC1=Nc2cccc3cccc(c23)N1`: the survivor count (T/C endpoint: mean survival time, dose: 100.0 mg/kg/injection, schedule: Q04DX003 (ip), vehicle: Klucel (hydroxypropylcellulose) (HPC)) was 2 of 6; the survivor count (T/C endpoint: mean survival time, dose: 200.0 mg/kg/injection, schedule: Q04DX003 (ip), vehicle: Klucel (hydroxypropylcellulose) (HPC)) is 0 of 6; the survivor count (T/C endpoint: mean survival time, dose: 400.0 mg/kg/injection, schedule: Q04DX003 (ip), vehicle: Klucel (hydroxypropylcellulose) (HPC)) is listed as 0 of 6.
